The record followed here is PMC12010382.

By UniProt entry, the sequences of proteins in these tests, tags left out. Where a name states a change or a piece, a line headed by the entry shows the natural chain unless it says otherwise.
UniProt Q9SQR8: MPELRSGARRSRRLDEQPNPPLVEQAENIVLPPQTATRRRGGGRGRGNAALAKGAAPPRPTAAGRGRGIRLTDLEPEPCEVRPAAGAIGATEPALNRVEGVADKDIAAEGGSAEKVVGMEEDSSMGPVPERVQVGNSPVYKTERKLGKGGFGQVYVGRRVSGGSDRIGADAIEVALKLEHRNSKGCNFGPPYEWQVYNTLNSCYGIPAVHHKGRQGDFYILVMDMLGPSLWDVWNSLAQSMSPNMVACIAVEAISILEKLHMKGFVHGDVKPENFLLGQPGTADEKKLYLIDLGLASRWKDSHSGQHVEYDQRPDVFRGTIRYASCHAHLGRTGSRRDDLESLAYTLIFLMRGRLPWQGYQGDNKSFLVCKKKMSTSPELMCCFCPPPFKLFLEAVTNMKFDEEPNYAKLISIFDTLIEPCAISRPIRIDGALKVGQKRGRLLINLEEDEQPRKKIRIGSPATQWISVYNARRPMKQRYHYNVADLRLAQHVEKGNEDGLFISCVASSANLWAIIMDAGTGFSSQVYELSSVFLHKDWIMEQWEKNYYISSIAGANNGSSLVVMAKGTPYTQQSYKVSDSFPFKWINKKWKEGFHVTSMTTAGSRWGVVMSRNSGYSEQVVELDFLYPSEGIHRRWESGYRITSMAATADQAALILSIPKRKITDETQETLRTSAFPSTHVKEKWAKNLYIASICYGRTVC
UniProt Q43125: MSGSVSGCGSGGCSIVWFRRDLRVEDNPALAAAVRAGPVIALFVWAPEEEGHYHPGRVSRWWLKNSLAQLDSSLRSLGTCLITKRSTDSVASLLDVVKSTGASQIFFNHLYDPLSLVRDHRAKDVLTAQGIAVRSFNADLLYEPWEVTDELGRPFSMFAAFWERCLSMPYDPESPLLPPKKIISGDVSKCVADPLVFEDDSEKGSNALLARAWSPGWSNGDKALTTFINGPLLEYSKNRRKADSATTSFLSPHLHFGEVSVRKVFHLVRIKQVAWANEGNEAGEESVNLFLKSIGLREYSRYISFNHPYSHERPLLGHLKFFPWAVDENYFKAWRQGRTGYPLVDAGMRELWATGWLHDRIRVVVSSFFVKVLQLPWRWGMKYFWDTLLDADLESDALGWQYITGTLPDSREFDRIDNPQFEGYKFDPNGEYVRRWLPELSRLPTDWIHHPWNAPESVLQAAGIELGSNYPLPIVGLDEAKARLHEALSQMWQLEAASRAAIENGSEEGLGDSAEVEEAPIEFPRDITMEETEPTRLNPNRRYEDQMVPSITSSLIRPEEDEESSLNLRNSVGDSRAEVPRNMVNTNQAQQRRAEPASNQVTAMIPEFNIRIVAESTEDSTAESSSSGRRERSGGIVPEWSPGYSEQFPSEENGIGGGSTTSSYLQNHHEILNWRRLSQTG

Results are given in words; binding and its absence hold for the method and conditions named. In cells and extracts the contact can be indirect. Binding calls can cover weak binding; strength is not graded here.

One test has as its target Flag-PPK1 (Arabidopsis) (UniProt Q7EMY5). Put plainly: co-IP; HEK293T cells co-expressing Myc-CRY1 and Flag-PPKs; dark or blue light (100 μmol m^-2 s^-1) for 1 h at 22°C or 44°C; immunoprecipitation with FLAG-conjugated beads; detection with anti-FLAG and anti-CRY1.
For another test, the target named is Flag-PPK3 (Arabidopsis) (UniProt Q9SQR8). Described as above.
The next test deals with PPK1-nYFP (Arabidopsis) (UniProt Q7EMY5). Briefly: split reporter; BiFC in tobacco leaves; nYFP and cYFP pair from one vector with H2B-mTagBFP as nuclear marker; imaged 72 h post-transfection; plants at 22°C or 44°C for 1 h before imaging.

For the substance Myc-CRY1 (from UniProt Q43125 1-681), the binding result with Flag-PPK1 (Arabidopsis) and with Flag-PPK3 (Arabidopsis) was “binds” in each case.
Turning to CRY1-cYFP (from UniProt Q43125 1-681), the binding result with PPK1-nYFP (Arabidopsis) is “binds”.
